Results reported in article PMC11331543.

Columns and labels:
Experiment in all cases: EMSA
[1] = test system: MBP-CsPHR2 (Camellia sinensis); conditions: LightShift Chemiluminescent EMSA kit, 20 ul, 20 min at room temperature, 6% native polyacrylamide gel, salt and pH not given, recombinant protein, protein details: N-terminal MBP (pET-HMT), label: biotin
[2] = test system: MBP-CsPHR1 (Camellia sinensis); conditions: LightShift Chemiluminescent EMSA kit, 20 ul, 20 min at room temperature, 6% native polyacrylamide gel; salt and pH not given; recombinant protein; protein details: N-terminal MBP (pET-HMT); label: biotin
MBP = MBP (UniProt P0AEX9); conditions: LightShift Chemiluminescent EMSA kit, 20 ul, 20 min at room temperature, 6% native polyacrylamide gel; salt and pH not given; protein translated in vitro; protein details: MBP; label: biotin
[3] = pCold-CsJAZ3 50-150 ng, dose-dependent reduction

Sequence	binding result [1]	binding result [1, 3]	binding result [2]	binding result (MBP)
CCGTTTATATTTTAGGACTCGTTAAGTAGAATATTCACGCAAAAAATAAGATTATC (double strand) [CsMYB5c probe (P1BS)]	binds	binds more weakly	binds	
TGGTTGTACTAGATTAGACATTGCATATGCAGTGGGAGTGGTTAGTAAAGTAATC (double strand) [CsANR1 probe (P1BS)]	binds	binds more weakly	binds	no binding

For some of these results: No signal at the amounts used counts as a negative. For some of these results: The exact form of at least one protein or probe is not confirmed. For some of these results: A weaker result is weaker than the reference pair of the same experiment. For some of these results: At least one verdict was read from the data and is not stated in words by the source.
